Values of other authors as cited in patent publication EP2168965A1, “Substituted imidazopyridine, imidazopyrazine, imidazopyridazine and imidazopyrimidine derivatives as melanocortin-4 receptor antagonists” (Santhera Pharmaceuticals (Schweiz) AG, priority 2008, dated 2010).

Settings: control compounds of the Caco-2 assay; Zhao et al. 2001; cited from earlier work

Question: With `CC(C)NCC(O)COc1ccc(CC(N)=O)cc1` (stereo not shown) [atenolol] as the compound, how does the human absorption read?
Answer: The human absorption was “approximately 50%”.
